Values of other authors in patent publication US20080207643A1, “Composition for Treating Hyperlipaemia” (priority 2004, published 2008).
At least one structure is not confirmed: it was looked up by name or label, or the drawing left a doubt.

Tested on: plasma concentration of methyl dihydroxyl valeric acid (MVA)
Details: 40 mg/d; cited from earlier work

SMILES	reduce the plasma concentration of methyl dihydroxyl valeric acid (MVA)
CC[C@H](C)C(=O)O[C@H]1C[C@H](O)C=C2C=C[C@H](C)[C@H](CC[C@@H](O)C[C@@H](O)CC(=O)O)[C@H]21 [pravastatin]	32%
CCC(C)(C)C(=O)O[C@H]1C[C@@H](C)C=C2C=C[C@H](C)[C@H](CC[C@@H]3C[C@@H](O)CC(=O)O3)[C@H]21 [simvastatin]	49%
